Measurements reported in the supplement of paper PMC7024190.
Structures can show the parent of a compound that is named as a salt. The list shows a part of the results. This data set is noisy: repeats of one test often differ as much as different tests do.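 A first-round screen of about ten thousand compounds sought those raising reporter output, using human embryonic kidney cells briefly transfected with a plasmid carrying a Renilla luciferase gene driven by the HSV-TK promoter.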

System: HEK 293FT
Experiment: log relative Renilla luciferase luminescence (reporter expression vs reference, reference not stated) (log (base not stated)); higher = higher recombinant reporter expression
Settings: 10 µM; time after transfection 48 h

Row | Structure (SMILES) | log
1 | O=C1OC(CN2CCOCC2)CN1/N=C/c1ccc([N+](=O)[O-])o1 (stereo not drawn) [Furaltadone hydrochloride] | -0.072
2 | CNCCCN1c2ccccc2CCc2ccccc21 [Desipramine hydrochloride] | 0.0159
3 | O=C1NCCN1CCN1CCC(c2cn(-c3ccc(F)cc3)c3ccc(Cl)cc23)CC1 [Sertindole] | -0.098
4 | O=C1CCC(N2C(=O)c3ccccc3C2=O)C(=O)N1 (stereo not drawn) [Thalidomide] | 0.03
5 | CC(=O)OCC1=C(C(=O)O)N2C(=O)[C@@H](NC(=O)Cc3cccs3)[C@H]2SC1 [Cephalothin sodium salt] | 0.212
6 | Clc1ccc(C(Cn2ccnc2)OCc2csc3c(Cl)cccc23)c(Cl)c1 (stereo not drawn) [Sertaconazole nitrate] | -0.0898
7 | CCN(CC)CCNC(=O)COc1ccc(OC)cc1 [Mefexamide hydrochloride] | 0.097
8 | CC1(C)S[C@@H]2[C@H](NC(=O)Cc3ccccc3)C(=O)N2[C@H]1C(=O)O [Benzylpenicillin sodium] | -0.0137
9 | CC1(C)S[C@@H]2[C@H](NC(=O)Cc3ccccc3)C(=O)N2[C@H]1C(=O)O [Benzathine benzylpenicillin] | 0.0424
10 | CCCCc1nc(Cl)c(CO)n1Cc1ccc(-c2ccccc2-c2nnn[nH]2)cc1 [Losartan] | 0.0638
11 | NCC[C@H](O)C(=O)N[C@@H]1C[C@H](N)[C@@H](O[C@H]2O[C@H](CN)[C@@H](O)[C@H](O)[C@H]2O)[C@H](O)[C@H]1O[C@H]1O[C@H](CO)[C@@H](O)[C@H](N)[C@H]1O [Amikacin hydrate] | 0.109
12 | Nc1nc(O)c2ncn(CCC(CO)CO)c2n1 [Penciclovir] | 0.0331
13 | Fc1ccc([C@@H]2CCNC[C@H]2COc2ccc3c(c2)OCO3)cc1 [Paroxetine Hydrochloride] | -0.0243
14 | O=c1[nH]cnc2c1ncn2[C@H]1CC[C@@H](CO)O1 [Didanosine] | 0.102
15 | NCCC[C@H](N)CC(=O)N[C@H]1CNC(=O)[C@H]([C@H]2C[C@H](O)NC(N)=N2)NC(=O)/C(=C/NC(N)=O)NC(=O)[C@H](CO)NC(=O)[C@H](CO)NC1=O [Viomycin sulfate] | 0.0079
16 | NC(CO)C(=O)NNCc1ccc(O)c(O)c1O (stereo not drawn) [Benserazide hydrochloride] | 0.129
17 | CN(C)CCCN1c2ccccc2CCc2ccccc21 [Imipramine hydrochloride] | 0.226
18 | CN1CCC(OC(c2ccccc2)c2ccccc2)CC1 [Diphenylpyraline hydrochloride] | 0.134
19 | Clc1ccc(Nc2nnc(Cc3ccncc3)c3ccccc23)cc1 [Vatalanib] | -0.404
20 | CC(=O)SCC(Cc1ccccc1)C(=O)NCC(=O)OCc1ccccc1 (stereo not drawn) [Racecadotril] | -0.0642
21 | C[C@H](CCC(=O)O)[C@H]1CC[C@H]2[C@@H]3CC[C@@H]4C[C@H](O)CC[C@]4(C)[C@H]3CC[C@]12C [Lithocholic acid] | 0.00816
22 | COC(=O)C1=C(C)NC(C)=C(C(=O)OC(C)C)C1c1cccc2nonc12 (stereo not drawn) [Isradipine] | -0.0407
23 | C[C@@]1(O)CCOC(=O)C1 [Mevalonic-D, L acid lactone] | 0.0748
24 | COCC(=O)Nc1c(I)c(C(=O)NCC(O)CO)c(I)c(C(=O)N(C)CC(O)CO)c1I (stereo not drawn) [Iopromide] | 0.0756
25 | O=C(O)CCCC[C@@H]1SC[C@@H]2NC(=O)N[C@@H]21 [Biotin] | 0.0384

Row | Structure (SMILES) | log
26 | CC1COc2c(N3CCN(C)CC3)c(F)cc3c(=O)c(C(=O)O)cn1c23 (stereo not drawn) [Ofloxacin] | 0.0361
27 | CC(C)C(=O)Nc1ccc([N+](=O)[O-])c(C(F)(F)F)c1 [Flutamide] | -0.0547
28 | Cn1cnc([N+](=O)[O-])c1Sc1ncnc2[nH]cnc12 [Azathioprine] | -0.23
29 | OCCN1C[C@H](O)[C@@H](O)[C@H](O)[C@H]1CO [Miglitol] | 0.0638
30 | c1ccc(CNc2ncnc3nc[nH]c23)cc1 [Aminopurine, 6-benzyl] | -0.216
31 | CN1Cc2c(N)cccc2C(c2ccccc2)C1 (stereo not drawn) [Nomifensine maleate] | 0.0626
32 | CC(C)(O)c1ccccc1CC[C@@H](SCC1(CC(=O)O)CC1)c1cccc(/C=C/c2ccc3ccc(Cl)cc3n2)c1 [Montelukast] | 0.0444
33 | COc1c(N2CCNC(C)C2)c(F)cc2c(=O)c(C(=O)O)cn(C3CC3)c12 (stereo not drawn) [Gatifloxacin] | 0.132
34 | O=C(c1ccccc1)c1ccc2n1CCC2C(=O)O (stereo not drawn) [Ketorolac tromethamine] | 0.145
35 | CCOC(=O)[C@@](C)(N)Cc1ccc(O)c(O)c1 [Methyldopate hydrochloride] | 0.0769
36 | Nc1ccn([C@@H]2CS[C@H](CO)O2)c(=O)n1 [Lamivudine] | -0.058
37 | Cc1cc(N)c2ccccc2[n+]1CCCCCCCCCC[n+]1c(C)cc(N)c2ccccc21 [Dequalinium dichloride] | -0.148
38 | COc1ccccc1OCC(O)COC(N)=O (stereo not drawn) [Methocarbamol] | 0.0377
39 | NC1CCN(c2nc3c(cc2F)c(=O)c(C(=O)O)cn3-c2ccc(F)cc2F)C1 (stereo not drawn) [Tosufloxacin hydrochloride] | 0.0404
40 | COC(=O)Nc1nc2cc([S+]([O-])c3ccccc3)ccc2[nH]1 (stereo not drawn) [Oxfendazol] | -0.356
41 | CCCOc1ccc(C(=O)OCCN(CC)CC)cc1N [Proparacaine hydrochloride] | -0.00375
42 | CC(=O)OCC(=O)[C@@]1(OC(C)=O)[C@@H](C)C[C@H]2[C@@H]3C[C@H](F)C4=CC(=O)C=C[C@]4(C)[C@@]3(F)[C@@H](O)C[C@@]21C [Diflorasone Diacetate] | -0.121
43 | CC[C@@H](CO)NCCN[C@@H](CC)CO [Ethambutol dihydrochloride] | 0.0542
44 | CC(CN(C)C)C(C)(O)Cc1ccc(Cl)cc1 (stereo not drawn) [Clobutinol hydrochloride] | -0.0656
45 | C[C@]1(Cn2ccnn2)[C@H](C(=O)O)N2C(=O)C[C@H]2S1(=O)=O [Tazobactam] | -0.0219
46 | C=CCOC(Cn1ccnc1)c1ccc(Cl)cc1Cl (stereo not drawn) [Enilconazole] | -0.132
47 | CC(CN(C)C)CN1c2ccccc2Sc2ccccc21 (stereo not drawn) [Trimeprazine tartrate] | -0.044
48 | CC1(C)[C@@H](OC(=O)CCC(=O)O)CC[C@]2(C)[C@H]3C(=O)C=C4[C@@H]5C[C@@](C)(C(=O)O)CC[C@]5(C)CC[C@@]4(C)[C@]3(C)CC[C@@H]12 [Carbenoxolone disodium salt] | -0.109
49 | N=C(N)NCCN1CCCCCCC1 [Guanethidine sulfate] | 0.151
50 | C#C[C@]1(O)CC[C@H]2[C@@H]3CCC4=CC(=O)CC[C@@H]4[C@H]3CC[C@@]21CC [Norgestrel-(-)-D] | -0.111

Some values from the list.
log, CC(=O)OCC(=O)[C@@]1(OC(C)=O)[C@@H](C)C[C@H]2[C@@H]3C[C@H](F)C4=CC(=O)C=C[C@]4(C)[C@@]3(F)[C@@H](O)C[C@@]21C [Diflorasone Diacetate] is entered as -0.121
log, COC(=O)Nc1nc2cc([S+]([O-])c3ccccc3)ccc2[nH]1 (stereo not drawn) [Oxfendazol] is entered as -0.356
log, c1ccc(CNc2ncnc3nc[nH]c23)cc1 [Aminopurine, 6-benzyl] is entered as -0.216
log, CC1(C)[C@@H](OC(=O)CCC(=O)O)CC[C@]2(C)[C@H]3C(=O)C=C4[C@@H]5C[C@@](C)(C(=O)O)CC[C@]5(C)CC[C@@]4(C)[C@]3(C)CC[C@@H]12 [Carbenoxolone disodium salt] is entered as -0.109
log, CCCOc1ccc(C(=O)OCCN(CC)CC)cc1N [Proparacaine hydrochloride] is entered as -0.00375
log, CC(CN(C)C)CN1c2ccccc2Sc2ccccc21 (stereo not drawn) [Trimeprazine tartrate] is entered as -0.044

(continued)

Row | Structure (SMILES) | log
51 | CC(C(=O)O)c1ccc(C(=O)c2ccccc2)s1 (stereo not drawn) [Tiaprofenic acid] | 0.0581
52 | CC(=O)N(CC(O)CN(C(C)=O)c1c(I)c(C(=O)NCC(O)CO)c(I)c(C(=O)NCC(O)CO)c1I)c1c(I)c(C(=O)NCC(O)CO)c(I)c(C(=O)NCC(O)CO)c1I (stereo not drawn) [Iodixanol] | -0.0696
53 | c1ccc(CN(CC2=NCCN2)c2ccccc2)cc1 [Antazoline hydrochloride] | 0.0464
54 | CN(C)CC/C=C1/c2ccccc2COc2ccc(CC(=O)O)cc21 [Olopatadine hydrochloride] | 0.0464
55 | C=CCSCC1Nc2cc(Cl)c(S(N)(=O)=O)cc2S(=O)(=O)N1 (stereo not drawn) [Althiazide] | -0.412
56 | C[C@]12CC[C@@H]3c4ccc(OS(=O)(=O)O)cc4CC[C@H]3[C@@H]1CCC2=O [Estropipate] | 0.121
57 | Cc1ccc(S(=O)(=O)NC(=O)NN2CCCCCC2)cc1 [Tolazamide] | 0.132
58 | CCN(CC)CCOC(=O)C(c1ccccc1)c1ccccc1 [Adiphenine hydrochloride] | 0.14
59 | OC(CCCN1CCCCC1)(c1ccccc1)c1ccccc1 [Diphenidol hydrochloride] | -0.166
60 | Nc1nc(NC2CC2)c2ncn([C@H]3C=C[C@@H](CO)C3)c2n1 [Abacavir Sulfate] | -0.388
61 | CN(Cc1cnc2nc(N)nc(N)c2n1)c1ccc(C(=O)N[C@@H](CCC(=O)O)C(=O)O)cc1 [Methotrexate] | -0.416
62 | CN(Cc1cnc2nc(N)nc(N)c2n1)c1ccc(C(=O)N[C@@H](CCC(=O)O)C(=O)O)cc1 (racemic) [Amethopterin (R,S)] | -0.313
63 | O=C(COc1ccc(Cl)cc1)N1CCN(Cc2ccc3c(c2)OCO3)CC1 [Fipexide hydrochloride] | 0.0619
64 | CNC(C)CCC=C(C)C (stereo not drawn) [Isometheptene mucate] | -0.103
65 | CCN(CC)CCNc1ccc(CO)c2sc3ccccc3c(=O)c12 [Hycanthone] | 0.0481
66 | CN(C)c1ccc(O)c2c1C[C@H]1C[C@H]3[C@H](N(C)C)C(O)=C(C(N)=O)C(=O)[C@@]3(O)C(O)=C1C2=O [Minocycline hydrochloride] | 0.197
67 | Cc1ccsc1/C=C/C1=NCCCN1C [Morantel tartrate] | 0.121
68 | CN(C)[C@@H]1C(O)=C(C(N)=O)C(=O)[C@@]2(O)C(O)=C3C(=O)c4c(O)cccc4[C@@](C)(O)[C@H]3[C@H](O)[C@@H]12 [Oxytetracycline dihydrate] | 0.0787
69 | CSc1ccc2c(c1)N(CCC1CCCCN1C)c1ccccc1S2 (stereo not drawn) [Thioridazine hydrochloride] | -0.00375
70 | CC/C(=C(/CC)c1ccc(O)cc1)c1ccc(O)cc1 [Diethylstilbestrol] | -0.041
71 | CC1=C(/C=C/C(C)=C/C=C/C(C)=C\C(=O)O)C(C)(C)CCC1 [Isotretinoin] | 0.0157
72 | NC(N)=Nc1nc(CSCC/C(N)=N/S(N)(=O)=O)cs1 [Famotidine] | -0.0566
73 | Cc1cc(-c2ccccc2)nnc1NCCN1CCOCC1 [Minaprine dihydrochloride] | -0.0812
